What all share (assay): affinity purification with mass spectrometry
Assay [1] has as its target T1, 3xHA-3xFLAG-FBXL5 (human) (UniProt Q9UKA1).
T1 sequence: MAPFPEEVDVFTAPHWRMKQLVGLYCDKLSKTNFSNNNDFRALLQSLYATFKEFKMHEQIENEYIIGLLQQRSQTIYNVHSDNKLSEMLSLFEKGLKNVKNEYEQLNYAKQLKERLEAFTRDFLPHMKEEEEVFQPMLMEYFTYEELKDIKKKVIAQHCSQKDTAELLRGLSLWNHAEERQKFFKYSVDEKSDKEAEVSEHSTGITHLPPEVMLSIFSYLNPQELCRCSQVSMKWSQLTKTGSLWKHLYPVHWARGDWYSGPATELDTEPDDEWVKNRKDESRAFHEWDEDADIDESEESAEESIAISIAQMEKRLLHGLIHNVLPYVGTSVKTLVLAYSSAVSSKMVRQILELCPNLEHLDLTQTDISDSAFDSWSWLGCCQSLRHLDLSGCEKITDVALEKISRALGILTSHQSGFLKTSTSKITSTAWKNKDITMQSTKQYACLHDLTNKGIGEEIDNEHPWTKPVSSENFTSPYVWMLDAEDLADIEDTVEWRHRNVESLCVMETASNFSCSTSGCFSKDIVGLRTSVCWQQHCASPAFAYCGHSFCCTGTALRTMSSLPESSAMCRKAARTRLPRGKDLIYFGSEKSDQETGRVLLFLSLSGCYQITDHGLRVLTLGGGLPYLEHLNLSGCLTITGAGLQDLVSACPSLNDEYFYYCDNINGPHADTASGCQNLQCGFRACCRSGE

Amino acid sequences for entries named in this document (tags omitted).
UniProt P63208: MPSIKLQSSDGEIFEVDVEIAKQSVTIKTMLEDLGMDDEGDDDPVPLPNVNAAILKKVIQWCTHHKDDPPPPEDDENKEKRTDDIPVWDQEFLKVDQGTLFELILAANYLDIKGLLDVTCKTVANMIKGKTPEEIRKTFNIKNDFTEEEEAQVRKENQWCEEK

The target of assay [2] is T2, 3xHA-3xFLAG-FBXL5-4C>S (human) (UniProt Q9UKA1).
T2 sequence: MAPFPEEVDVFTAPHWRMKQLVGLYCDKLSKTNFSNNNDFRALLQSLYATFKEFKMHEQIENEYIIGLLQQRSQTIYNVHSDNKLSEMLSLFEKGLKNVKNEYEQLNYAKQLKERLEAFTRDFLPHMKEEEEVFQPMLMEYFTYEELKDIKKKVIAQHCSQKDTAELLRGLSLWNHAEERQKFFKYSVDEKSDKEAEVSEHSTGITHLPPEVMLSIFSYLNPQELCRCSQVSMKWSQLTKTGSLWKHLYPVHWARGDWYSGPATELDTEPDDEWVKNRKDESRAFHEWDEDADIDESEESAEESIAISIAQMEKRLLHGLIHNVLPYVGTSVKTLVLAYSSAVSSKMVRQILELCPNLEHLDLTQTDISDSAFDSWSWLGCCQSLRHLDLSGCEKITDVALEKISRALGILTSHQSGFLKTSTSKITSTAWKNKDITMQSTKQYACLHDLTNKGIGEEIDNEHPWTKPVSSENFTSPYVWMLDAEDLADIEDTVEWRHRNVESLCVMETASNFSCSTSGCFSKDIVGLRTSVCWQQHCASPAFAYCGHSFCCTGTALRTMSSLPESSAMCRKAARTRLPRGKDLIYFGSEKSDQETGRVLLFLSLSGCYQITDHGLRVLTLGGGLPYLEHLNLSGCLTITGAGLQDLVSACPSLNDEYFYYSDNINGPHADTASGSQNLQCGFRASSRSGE

For assay [3], the target named is 3xHA-3xFLAG-FBXL5-ΔFbox (human) (UniProt Q9UKA1).

Results are given in words; binding and its absence hold for the method and conditions named. In cells and extracts the contact can be indirect. A yes stands for co-enrichment or nearness to the bait. Other partners may have been found. For some of these results: No binding means not detected with the bait. For some of these results: Sequences can lack the tags named with a protein.

Consider two molecules from doi:10.1101/2024.01.29.577840.

With “SKP1 (endogenous) (from UniProt P63208 1-163)”, the binding entry in assay [1] is recorded as “binds”.

B1: IRP2 (endogenous) (protein, UniProt P48200 1-963)
chain: MDAPKAGYAFEYLIETLNDSSHKKFFDVSKLGTKYDVLPYSIRVLLEAAVRNCDGFLMKKEDVMNILDWKTKQSNVEVPFFPARVLLQDFTGIPAMVDFAAMREAVKTLGGDPEKVHPACPTDLTVDHSLQIDFSKCAIQNAPNPGGGDLQKAGKLSPLKVQPKKLPCRGQTTCRGSCDSGELGRNSGTFSSQIENTPILCPFHLQPVPEPETVLKNQEVEFGRNRERLQFFKWSSRVFKNVAVIPPGTGMAHQINLEYLSRVVFEEKDLLFPDSVVGTDSHITMVNGLGILGWGVGGIETEAVMLGLPVSLTLPEVVGCELTGSSNPFVTSIDVVLGITKHLRQVGVAGKFVEFFGSGVSQLSIVDRTTIANMCPEYGAILSFFPVDNVTLKHLEHTGFSKAKLESMETYLKAVKLFRNDQNSSGEPEYSQVIQINLNSIVPSVSGPKRPQDRVAVTDMKSDFQACLNEKVGFKGFQIAAEKQKDIVSIHYEGSEYKLSHGSVVIAAVISCTNNCNPSVMLAAGLLAKKAVEAGLRVKPYIRTSLSPGSGMVTHYLSSSGVLPYLSKLGFEIVGYGCSICVGNTAPLSDAVLNAVKQGDLVTCGILSGNKNFEGRLCDCVRANYLASPPLVVAYAIAGTVNIDFQTEPLGTDPTGKNIYLHDIWPSREEVHRVEEEHVILSMFKALKDKIEMGNKRWNSLEAPDSVLFPWDLKSTYIRCPSFFDKLTKEPIALQAIENAHVLLYLGDSVTTDHISPAGSIARNSAAAKYLTNRGLTPREFNSYGARRGNDAVMTRGTFANIKLFNKFIGKPAPKTIHFPSGQTLDVFEAAELYQKEGIPLIILAGKKYGSGNSRDWAAKGPYLLGVKAVLAESYEKIHKDHLIGIGIAPLQFLPGENADSLGLSGRETFSLTFPEELSPGITLNIQTSTGKVFSVIASFEDDVEITLYKHGGLLNFVARKFS
With B1, the results for the binding result in assay [1], in assay [2] and in assay [3] were “binds”, “no binding” and “binds”, respectively.
